In all, about 360,000 compounds went through this assay and about 9,100 (2.5%) were called active. The inconclusive results got no clear call from the source; some entries with a clear call stand among them for comparison. Cut-off read from the data, not from the text of the source: active = max response below about -50%; inconclusive = no clear call, values can overlap the other calls; inactive = above that.
Target: D(3) dopamine receptor (Homo sapiens) (UniProt P35462)
Test: qHTS of D3 Dopamine Receptor Antagonist: qHTS
Conditions: D3R cells, DiscoveRx beta-arrestin luminescence, antagonist mode; stronger effect = lower value
Method in brief: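 Cells expressing the human receptor were seeded at 1500 cells/well, incubated overnight at 37 degrees C in 5% CO2, then exposed to library compounds with dopamine controls for 90 minutes at 37 degrees C before luminescent detection.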
% is set by controls: 0 for no effect and ±100 for the full control effect.

Chains of the proteins cited; added tags and fusions are not shown.
UniProt P35462, whole entry, looked up: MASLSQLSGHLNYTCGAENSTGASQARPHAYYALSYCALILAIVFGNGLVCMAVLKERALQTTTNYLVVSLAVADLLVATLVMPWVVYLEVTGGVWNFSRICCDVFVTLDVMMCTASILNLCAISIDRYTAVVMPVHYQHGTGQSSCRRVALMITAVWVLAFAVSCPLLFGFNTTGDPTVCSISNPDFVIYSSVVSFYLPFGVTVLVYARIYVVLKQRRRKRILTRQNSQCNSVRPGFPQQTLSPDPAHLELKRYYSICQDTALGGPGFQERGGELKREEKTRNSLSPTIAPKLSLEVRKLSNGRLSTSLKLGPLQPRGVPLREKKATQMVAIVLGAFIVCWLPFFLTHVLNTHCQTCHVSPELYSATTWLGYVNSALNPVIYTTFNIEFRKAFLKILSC

Max response, negative = inhibition, inconclusive:
Cc1cccc(C)c1NC(=O)C1C(c2ccccc2)=Nc2ccccc2N1C(=O)c1cnccn1 (centres undefined) -39%
CCOC(=O)CC1C(=O)NC2CCCCC2N1C(=O)Nc1ccc(Cl)cc1 (centres undefined) -36.2%
COc1cc(C(=O)NCc2ccc(-c3nc4ccccc4s3)cc2)cc(OC)c1OC -47.4%
Cn1c2nc(=O)n(-c3ccccc3)c(=O)c-2nc2c1CCCC2 -32.5%
Cc1nnc(NC(=O)c2ccc3ccccc3c2)o1 -43%
COCCNC(=O)C1(C)CCCN(Cc2cc(-c3ccccc3)n(C)n2)C1 (centres undefined) -46.1%
Cc1cc2ccccc2cc1CN1CCOCC1 -32.9%
Cc1[nH]c2ccccc2c1/C=N/Nc1ccc([N+](=O)[O-])cc1 -31.3%
Cn1cnc(C(=O)N2CCN(c3ccccc3)CC2)c1C(=O)N1CCN(c2ccccc2)CC1 -47.2%
O=C(CCc1nc2ccccc2[nH]1)Nc1ccc2c(c1)OCO2 -35.6%
CCc1cc2c(=O)c(-c3nc4ccccc4n3C)c(C)oc2c(CN2CCN(CCO)CC2)c1O -37%
COc1ccccc1-c1cc(-c2ccccc2)nc(=O)[nH]1 -45.6%
OC(COC(c1ccc(Cl)cc1)c1ccc(Cl)cc1)CN1CCN(c2ccccn2)CC1 (centres undefined) -39.6%
CC/C(=N\NC(=O)c1csc(C)c1C)c1cccs1 -43.5%
O=C(O)COc1ccc(Br)cc1/C=N/O -32.6%
O=C1C2CC=CCC2C(=O)N1c1ccc(NCCc2ccc(O)cc2)c([N+](=O)[O-])c1 (centres undefined) -33%
COc1ccc2cc(CN(CCc3ccccc3)Cc3nnnn3Cc3ccco3)c(=O)[nH]c2c1 -44.5%
Cc1nc(NC(=O)c2oc3ccccc3c2C)sc1C(=O)N(C)C -35.9%
c1ccc(CN2CCN(CCOCCOc3ccc4c(c3)CCC4)CC2)cc1 -48.8%
O=S1(=O)CC(N2CCC(Cc3ccccc3)CC2)CN1Cc1ccc(F)cc1 (centres undefined) -35%
O=C(NCCC(=O)N1CCc2ccccc21)c1ccco1 -38.5%
Cc1ccc(C)c(N2C(=N)S/C(=C\c3ccc(-c4ccccc4C(=O)O)o3)C2=O)c1 -32.8%
COc1ccc2c(=O)c3c(=O)n(Cc4ccco4)c(-c4ccc(C)cc4)nc3oc2c1 -30.1%
CNC(=O)NC(=O)CSc1nnc(-c2ccco2)n1Cc1ccccc1 -36%
CC(C)(C)NC(=O)COc1coc(CN2CCN(C(=O)c3ccco3)CC2)cc1=O -30.4%

Some of these compounds in order of molecular weight, low to high:
Max response, negative = inhibition, inconclusive:
O=C(CCc1nc2ccccc2[nH]1)Nc1ccc2c(c1)OCO2 -35.6%
O=S1(=O)CC(N2CCC(Cc3ccccc3)CC2)CN1Cc1ccc(F)cc1 (centres undefined) -35%
OC(COC(c1ccc(Cl)cc1)c1ccc(Cl)cc1)CN1CCN(c2ccccn2)CC1 (centres undefined) -39.6%

Following part.

Max response, negative = inhibition, active:
FC(F)(F)c1cnc(NNC(=S)Nc2ccccc2)c(Cl)c1 -91.7%
CCC(CC)=N/N=C/c1c(O)n(CC)c2cc(C3=NNC(=O)CC3)ccc12 -53%
COc1ccc(-c2cc3c(=O)n(CC(=O)NCCCN4CCN(Cc5ccccc5)CC4)ncn3n2)cc1 -66.9%
O=C(c1ccc(S(=O)(=O)N2CCOCC2)cc1)N1CCN(c2cccc(Cl)c2)CC1 -68.9%
CC(NCC1COc2ccccc2O1)C1COc2ccccc2O1 (centres undefined) -63.4%
COc1ccccc1-n1c(SCC(=O)NCC2CCCO2)nc2c([nH]c3ccccc32)c1=O (centres undefined) -57.4%
CCOc1cc(CN2CCCC(C(=O)c3cccc(C(F)(F)F)c3)C2)ccc1O (centres undefined) -70%
COCCNCCCCSc1ccc(Cl)cc1 -59.4%

Max response, negative = inhibition, inactive:
CC(C)C[C@@H](CN1CCC[C@@H]1CN1C(=O)C(=O)NC[C@@H]1Cc1ccc(O)cc1)N1C[C@H](Cc2ccc(O)cc2)N(CC2CCCCCC2)C(=O)C1=O 28.4%
Cc1ccc(S(=O)(=O)Oc2ccc(/C=N/NC(=O)c3cccnc3)cc2)cc1 1.22%
O=C(COC(=O)Cc1ccc(Cl)cc1)NCc1ccco1 11.9%
O=C(c1ccc(F)cc1)C1CCN(C(=O)c2c(F)cccc2F)CC1 -15.8%
O=C1C(Nc2ccccc2)=C(NS(=O)(=O)c2ccccc2)C(=O)c2ccccc21 -12.1%
COc1cc(OC)c(NC(=O)C2CC(=O)N(c3ccc4c(c3)OCCO4)C2)cc1Cl (centres undefined) 12%
COc1ccccc1N1CCN(CC(=O)c2ccc(F)cc2)CC1 -14.2%
COc1cc2c(c(OC)c1OC)-c1ccc(NC(=O)c3ccccc3)c(=O)cc1[C@@H](NC(C)=O)CC2 -4.17%
O=C(N/N=C/C(Cl)=C/c1ccccc1)c1ccccn1 5.95%
CCN(CC)C(=O)C1CCCN(c2ccc([N+](=O)[O-])cc2/C=N/NC(=O)c2cccc(Br)c2)C1 (centres undefined) -10.4%
COc1ccc(Nc2nc(-c3cccc([N+](=O)[O-])c3)nc3ccccc23)c(OC)c1 3.14%
